One substance from PMC8683478 can be followed below.

By UniProt entry, the sequences of proteins in these tests, tags left out.
UniProt P19474: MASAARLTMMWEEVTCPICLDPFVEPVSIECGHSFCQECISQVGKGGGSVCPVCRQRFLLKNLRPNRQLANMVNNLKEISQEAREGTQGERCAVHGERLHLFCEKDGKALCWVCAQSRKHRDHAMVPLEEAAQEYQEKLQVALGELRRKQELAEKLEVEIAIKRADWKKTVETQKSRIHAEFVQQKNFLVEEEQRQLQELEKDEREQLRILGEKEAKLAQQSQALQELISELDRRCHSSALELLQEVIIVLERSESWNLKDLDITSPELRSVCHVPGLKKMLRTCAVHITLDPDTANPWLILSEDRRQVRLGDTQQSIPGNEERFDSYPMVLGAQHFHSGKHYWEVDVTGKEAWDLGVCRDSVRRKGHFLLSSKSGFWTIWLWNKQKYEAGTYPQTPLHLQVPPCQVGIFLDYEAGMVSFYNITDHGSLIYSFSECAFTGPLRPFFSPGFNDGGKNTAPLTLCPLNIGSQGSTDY

These are yes or no findings as the source states them, for the method shown. Binding seen in cells or lysates may run through a third protein. A yes stands for co-enrichment or nearness to the bait. Other partners may have been found.

The experiment deals with T1, p15INK4b-related sequence/regulation of nuclear pre-mRNA domain-containing protein 1A (RPRD1A) (human (endogenous in MHCCLM3)) (UniProt Q96P16).
T1 sequence: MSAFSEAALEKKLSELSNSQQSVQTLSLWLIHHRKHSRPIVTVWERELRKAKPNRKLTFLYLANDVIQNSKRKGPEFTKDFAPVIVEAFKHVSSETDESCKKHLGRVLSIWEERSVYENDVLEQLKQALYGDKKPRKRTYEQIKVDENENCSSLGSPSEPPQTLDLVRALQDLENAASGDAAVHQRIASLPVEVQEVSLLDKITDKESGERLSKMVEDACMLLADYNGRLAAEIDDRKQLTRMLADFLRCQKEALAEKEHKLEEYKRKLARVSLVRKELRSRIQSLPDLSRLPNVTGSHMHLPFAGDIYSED
In words: affinity purification with mass spectrometry; immunoprecipitation from MHCCLM3 cells with antibody against RPRD1A, SDS-PAGE, coomassie staining, indicated bands excised for mass spectrometry.

Take TRIM21 (from UniProt P19474 1-475): the binding entry was “binds”.
